These are yes or no findings as the source states them, for the method shown. In cells and extracts the contact can be indirect. Some entries that bind do so weakly or less than the wild type. For part of these data: Tags and fused reporters may be left off the sequences shown.

Sequences of proteins named here, by UniProt entry; tags and fusion partners are left off.
UniProt P40337: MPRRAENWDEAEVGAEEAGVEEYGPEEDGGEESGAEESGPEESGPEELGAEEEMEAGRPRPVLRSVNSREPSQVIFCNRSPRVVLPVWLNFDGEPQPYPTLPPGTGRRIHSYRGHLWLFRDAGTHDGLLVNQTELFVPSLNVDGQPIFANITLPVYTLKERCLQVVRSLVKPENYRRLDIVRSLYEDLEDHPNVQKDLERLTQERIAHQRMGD

The target of assay [1] is VHL, endogenous in HEK293A (human (endogenous in HEK293A)) (UniProt P40337). The experiment in a line: co-IP; endogenous proteins; lysate of HEK293A treated with 10 µM MG132 for 4 h; anti-VHL antibody against an IgG1 isotype control; mild lysis buffer.
Assay [2] addresses HA-VHL stably reconstituted in 786-O cells (HA-VHL-pRc/CMV) (UniProt P40337). The experiment in a line: co-IP; lysate of MG132-treated 786-O cells stably reconstituted with HA-VHL; VHL-targeting antibody against an isotype control.
In assay [3] the target is Flag-tagged VHL (UniProt P40337). Nature of the assay: co-IP; HEK293A transfected with indicated plasmids, 10 µM MG132 as indicated for 4 h; immunoprecipitation of Flag-VHL; normoxia or hypoxia (0.5% O2 for 24 h).

B1: retinoblastoma protein (pRb), endogenous in HEK293A (protein, UniProt P06400 1-928)
chain: MPPKTPRKTAATAAAAAAEPPAPPPPPPPEEDPEQDSGPEDLPLVRLEFEETEEPDFTALCQKLKIPDHVRERAWLTWEKVSSVDGVLGGYIQKKKELWGICIFIAAVDLDEMSFTFTELQKNIEISVHKFFNLLKEIDTSTKVDNAMSRLLKKYDVLFALFSKLERTCELIYLTQPSSSISTEINSALVLKVSWITFLLAKGEVLQMEDDLVISFQLMLCVLDYFIKLSPPMLLKEPYKTAVIPINGSPRTPRRGQNRSARIAKQLENDTRIIEVLCKEHECNIDEVKNVYFKNFIPFMNSLGLVTSNGLPEVENLSKRYEEIYLKNKDLDARLFLDHDKTLQTDSIDSFETQRTPRKSNLDEEVNVIPPHTPVRTVMNTIQQLMMILNSASDQPSENLISYFNNCTVNPKESILKRVKDIGYIFKEKFAKAVGQGCVEIGSQRYKLGVRLYYRVMESMLKSEEERLSIQNFSKLLNDNIFHMSLLACALEVVMATYSRSTSQNLDSGTDLSFPWILNVLNLKAFDFYKVIESFIKAEGNLTREMIKHLERCEHRIMESLAWLSDSPLFDLIKQSKDREGPTDHLESACPLNLPLQNNHTAADMYLSPVRSPKKKGSTTRVNSTANAETQATSAFQTQKPLKSTSLSLFYKKVYRLAYLRLNTLCERLLSEHPELEHIIWTLFQHTLQNEYELMRDRHLDQIMMCSMYGICKVKNIDLKFKIIVTAYKDLPHAVQETFKRVLIKEEEYDSIIVFYNSVFMQRLKTNILQYASTRPPTLSPIPHIPRSPYKFPSSPLRIPGGNIYISPLKSPYKISEGLPTPTKMTPRSRILVSIGESFGTSEKFQKINQMVCNSDRVLKRSAEGSNPPKPLKKLRFDIEGSDEADGSKHLPGESKFQQKLAEMTSTRTRMQKQKMNDSMDTSNKEEK
For B1, the binding result in assay [1] is “binds”.

B2: retinoblastoma protein (pRb), endogenous in 786-O (protein, UniProt P06400 1-928)
chain: B1 chain
Regarding B2, in assay [2], the binding entry was “binds”.

B3: pRb in the Flag-VHL immunoprecipitation of Fig. 3A (protein, UniProt P06400 1-928)
chain: B1 chain
For B3, the binding result in assay [3] is listed as “binds”.

Values taken from publication PMC12003641.
